This is an account of results in PMC3777911.

Chains of the proteins cited; added tags and fusions are not shown. Lines headed by an entry give the natural chain unless they say otherwise; changes in a name come on top.
UniProt P55735: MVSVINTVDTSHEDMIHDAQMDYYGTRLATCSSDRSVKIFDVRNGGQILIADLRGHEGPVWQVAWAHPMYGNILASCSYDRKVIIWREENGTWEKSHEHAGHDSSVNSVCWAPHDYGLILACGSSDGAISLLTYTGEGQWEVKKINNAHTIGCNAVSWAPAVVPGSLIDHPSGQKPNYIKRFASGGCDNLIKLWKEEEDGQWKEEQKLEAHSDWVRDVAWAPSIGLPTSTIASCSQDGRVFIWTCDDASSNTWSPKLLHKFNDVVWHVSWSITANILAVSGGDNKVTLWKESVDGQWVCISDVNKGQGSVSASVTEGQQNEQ

This assay has as its target HA-Sec13/His-Sec31A complex (outer COPII coat), wild type (UniProt P55735). Kind of assay: pull-down; His-tagged Sec31A (Sec13/Sec31A) immobilised on Nickel beads, recombinant ALG-2 versions added, in the presence of Ca2+; eluates on SDS-PAGE, SyproRed; ratios from fluorescence intensity; both purified.

These are yes or no findings as the source states them, for the method shown. Some binding calls cover weakened binding; strength is not graded here.

B1: ALG-2 with the E114A substitution in EF-hand 3 (protein, UniProt P12815 1-191)
chain: MAAYSYRPGPGGGPGPAAGAALPDQSFLWNVFQRVDKDRSGVISDNELQQALSNGTWTPFNPVTVRSIISMFDRENKAGVNFSEFTGVWKYITDWQNVFRTYDRDNSGMIDKNALKQALSGFGYRLSDQFHDILIRKFDRQGRGQIAFDDFIQGCIVLQRLTDIFRRYDTDQDGWIQVSYEQYLSMVFSIV
Regarding B1, the binding entry is listed as “binds”.
